According to paper PMC6775114:
Results are given in words; binding and its absence hold for the method and conditions named. Binding seen in cells or lysates may run through a third protein. Some entries that bind do so weakly or less than the wild type.

The chains behind the UniProt entries cited, without tags or fusion partners. Where a name states a change or a piece, a line headed by the entry shows the natural chain unless it says otherwise. A line that says so, or that is headed by a name, gives the form on record, which may keep a tag or linker. Residues count along the entry.
GST-nesprin-1-alpha2 wild type (aa1-842, SR1-5, KASH-less bait protein) (Q8NF91, form named): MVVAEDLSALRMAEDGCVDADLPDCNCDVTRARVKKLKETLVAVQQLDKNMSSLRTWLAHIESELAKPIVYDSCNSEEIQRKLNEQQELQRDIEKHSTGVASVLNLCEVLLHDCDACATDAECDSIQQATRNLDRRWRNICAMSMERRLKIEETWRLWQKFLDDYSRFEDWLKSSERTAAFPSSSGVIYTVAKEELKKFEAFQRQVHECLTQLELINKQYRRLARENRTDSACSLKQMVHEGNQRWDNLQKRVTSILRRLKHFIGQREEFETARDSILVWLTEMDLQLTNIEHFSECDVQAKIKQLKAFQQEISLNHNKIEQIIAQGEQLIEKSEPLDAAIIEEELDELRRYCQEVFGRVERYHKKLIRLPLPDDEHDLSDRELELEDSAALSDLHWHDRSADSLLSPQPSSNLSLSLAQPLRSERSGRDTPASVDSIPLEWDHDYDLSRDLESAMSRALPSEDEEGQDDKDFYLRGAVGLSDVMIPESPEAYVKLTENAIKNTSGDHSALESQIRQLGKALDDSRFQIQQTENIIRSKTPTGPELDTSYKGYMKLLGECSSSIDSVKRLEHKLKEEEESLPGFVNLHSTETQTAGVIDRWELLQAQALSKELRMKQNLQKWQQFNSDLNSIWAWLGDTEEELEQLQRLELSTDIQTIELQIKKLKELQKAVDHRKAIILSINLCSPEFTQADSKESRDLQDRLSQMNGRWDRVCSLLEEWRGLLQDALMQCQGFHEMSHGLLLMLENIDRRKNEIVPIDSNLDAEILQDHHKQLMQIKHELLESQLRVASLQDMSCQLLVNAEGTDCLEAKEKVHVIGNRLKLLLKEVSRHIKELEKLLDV
UniProt Q07866: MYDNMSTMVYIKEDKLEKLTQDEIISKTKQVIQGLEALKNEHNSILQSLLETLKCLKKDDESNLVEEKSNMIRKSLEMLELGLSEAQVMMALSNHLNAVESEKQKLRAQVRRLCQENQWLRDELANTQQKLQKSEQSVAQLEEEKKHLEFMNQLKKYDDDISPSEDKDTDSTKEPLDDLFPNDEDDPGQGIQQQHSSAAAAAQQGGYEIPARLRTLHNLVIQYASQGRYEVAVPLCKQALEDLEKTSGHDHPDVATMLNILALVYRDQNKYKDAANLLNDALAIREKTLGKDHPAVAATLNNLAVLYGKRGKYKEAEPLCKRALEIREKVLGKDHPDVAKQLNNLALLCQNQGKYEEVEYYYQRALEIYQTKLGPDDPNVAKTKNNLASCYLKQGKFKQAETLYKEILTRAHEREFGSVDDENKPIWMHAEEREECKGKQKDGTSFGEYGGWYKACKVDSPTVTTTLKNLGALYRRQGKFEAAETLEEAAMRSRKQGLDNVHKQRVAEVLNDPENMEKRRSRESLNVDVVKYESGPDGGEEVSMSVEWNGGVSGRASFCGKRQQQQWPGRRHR
UniProt P02545, residues 1-646: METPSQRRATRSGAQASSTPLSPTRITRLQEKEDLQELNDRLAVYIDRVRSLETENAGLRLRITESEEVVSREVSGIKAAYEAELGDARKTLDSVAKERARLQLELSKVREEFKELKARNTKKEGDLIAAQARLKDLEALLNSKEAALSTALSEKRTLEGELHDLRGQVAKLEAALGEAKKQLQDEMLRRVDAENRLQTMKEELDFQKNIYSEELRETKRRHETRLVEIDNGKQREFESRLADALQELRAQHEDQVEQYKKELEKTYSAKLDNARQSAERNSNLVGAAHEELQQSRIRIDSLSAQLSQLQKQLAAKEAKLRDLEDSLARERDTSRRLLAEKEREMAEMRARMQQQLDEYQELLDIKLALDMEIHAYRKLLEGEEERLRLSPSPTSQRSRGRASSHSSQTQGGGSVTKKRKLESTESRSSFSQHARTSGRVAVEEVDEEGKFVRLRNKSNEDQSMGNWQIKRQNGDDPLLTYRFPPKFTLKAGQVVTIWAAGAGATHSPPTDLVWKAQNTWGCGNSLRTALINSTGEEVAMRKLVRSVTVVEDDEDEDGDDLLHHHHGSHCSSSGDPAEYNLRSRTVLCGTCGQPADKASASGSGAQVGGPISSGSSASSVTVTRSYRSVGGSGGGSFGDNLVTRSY

Target: GST-nesprin-1-alpha2 wild type (aa1-842, SR1-5, KASH-less bait protein) (human) (UniProt Q8NF91)
Assay: pull-down; GST-tagged bait on glutathione beads, RIPA extract of human myotubes; pulled-down proteins probed by western blot; only the target purified

Row | binding | Substance
1 | binds | human kinesin light-chain (kinesin light chain 1, 72 kDa) (from UniProt Q07866 1-573)
2 | no binding | lamin A/C (from UniProt P02545 1-646)
